Test results as given in publication doi:10.1101/2025.05.23.655736 (bioRxiv, 2025).
Residue numbers refer to the chain shown, from its start. Numbers in names are those of the source. No constants are given. Whether binding was seen depends on the method and setting. Binding seen in cells or lysates may run through a third protein. A result given as binding can be weak or reduced; the word gives no strength.

B1: Streptococcus pneumoniae PcsB, wild type, with PelB leader (in the FtsEX-PcsB complex) (enzyme, UniProt Q8DMY4 28-392)
chain: ETTDDKIAAQDNKISNLTAQQQEAQKQVDQIQEQVSAIQAEQSNLQAENDRLQAESKKLEGEITELSKNIVSRNQSLEKQARSAQTNGAVTSYINTIVNSKSITEAISRVAAMSEIVSANNKMLEQQKADKKAISEKQVANNDAINTVIANQQKLADDAQALTTKQAELKAAELSLAAEKATAEGEKASLLEQKAAAEAEARAAAVAEAAYKEKRASQQQSVLASANTNLTAQVQAVSESAAAPVRAKVRPTYSTNASSYPIGECTWGVKTLAPWAGDYWGNGAQWATSAAAAGFRTGSTPQVGAIACWNDGGYGHVAVVTAVESTTRIQVSESNYAGNRTIGNHRGWFNPTTTSEGFVTYIYAD
B2: Streptococcus pneumoniae PcsB (A194C/A231C) (enzyme, UniProt Q8DMY4 28-392)
chain: B1 chain with A167C, A204C

Molecular target: Streptococcus pneumoniae FtsEX complex (Streptococcus pneumoniae)
Assay: co-purification

Binder	binding
B1	binds
B2	binds
